# Results published in the supplement of paper PMC8728848.
# The other results are listed elsewhere or left out.
# B1: GST Gap3 (Streptococcus parasanguinis) (protein)
# chain: MTKQLISEIYWNEIRKGENYLYGSQIKFQEDLVNFYNPQLASGKPIVTFKSRTNYQGDRHSPDLPILIQGNRYLLEYQIDAVPANSFFLQLDFFNRQAEQIESIVLRNSGESFIFPKDTFTYTLTLMSAGCQSVTYQKFMIYDINDEEKKNHIVENRYLRELLPKDLDLVKNLIEYI
# Assays:
# Experiment in all cases: glycan array binding signal (z-score within array); higher = stronger binding
# Details in all cases: glycan notation: IUPAC condensed, linker removed
# [1] = target: Neu5Ac(a2-3)[Neu5Ac(a2-6)]GalNAc
# Outline: (§1)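 From the Consortium for Functional Glycomics database, 3228 arrays were curated, keeping only those whose protein sequence was available. Binding is given as a within-array Z-score averaged across arrays sharing a protein sequence and across linkers. Negative Z-scores can be read as non-binding.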
# [2] = target: Neu5Ac(a2-6)Gal
# Outline: as §1
# [3] = target: Neu5Ac(a2-6)Gal(b1-3)GlcNAc(b1-3)[Gal(b1-4)GlcNAc(b1-6)]Gal(b1-4)Glc
# Outline: as §1
# [4] = target: Neu5Ac(a2-6)Gal(b1-4)Glc
# Outline: as §1
# [5] = target: Neu5Ac(a2-6)Gal(b1-4)GlcNAc
# Outline: as §1
# [6] = target: Neu5Ac(a2-6)Gal(b1-4)GlcNAc(b1-2)Man
# Outline: as §1
# [7] = target: Neu5Ac(a2-6)Gal(b1-4)GlcNAc(b1-2)Man(a1-3)Man(b1-4)GlcNAc(b1-4)GlcNAc
# Outline: as §1
# [8] = target: Neu5Ac(a2-6)Gal(b1-4)GlcNAc(b1-2)Man(a1-3)[Gal(b1-4)GlcNAc(b1-2)Man(a1-6)]Man(b1-4)GlcNAc(b1-4)GlcNAc
# Outline: as §1
# [9] = target: Neu5Ac(a2-6)Gal(b1-4)GlcNAc(b1-2)Man(a1-3)[GlcNAc(b1-2)Man(a1-6)]Man(b1-4)GlcNAc(b1-4)GlcNAc
# Outline: as §1
# [10] = target: Neu5Ac(a2-6)Gal(b1-4)GlcNAc(b1-2)Man(a1-3)[GlcNAc(b1-2)Man(b1-4)GlcNAc(b1-2)Man(a1-6)]Man(b1-4)GlcNAc(b1-4)GlcNAc
# Outline: as §1
# [11] = target: Neu5Ac(a2-6)Gal(b1-4)GlcNAc(b1-2)Man(a1-3)[GlcNAc(b1-4)][Neu5Ac(a2-6)Gal(b1-4)GlcNAc(b1-2)Man(a1-6)]Man(b1-4)GlcNAc(b1-4)GlcNAc
# Outline: as §1
# [12] = target: Neu5Ac(a2-6)Gal(b1-4)GlcNAc(b1-2)Man(a1-3)[Man(a1-6)]Man(b1-4)GlcNAc(b1-4)GlcNAc
# Outline: as §1
# [13] = target: Neu5Ac(a2-6)Gal(b1-4)GlcNAc(b1-2)Man(a1-3)[Neu5Ac(a2-3)Gal(b1-4)GlcNAc(b1-2)Man(a1-6)]Man(b1-4)GlcNAc(b1-4)GlcNAc
# Outline: as §1
# [14] = target: Neu5Ac(a2-6)Gal(b1-4)GlcNAc(b1-2)Man(a1-3)[Neu5Ac(a2-6)Gal(b1-4)GlcNAc(b1-2)Man(a1-6)]Man(b1-4)GlcNAc(b1-4)GlcNAc
# Outline: as §1
# [15] = target: Neu5Ac(a2-6)Gal(b1-4)GlcNAc(b1-2)Man(a1-3)[Neu5Ac(a2-6)Gal(b1-4)GlcNAc(b1-2)Man(a1-6)]Man(b1-4)GlcNAc(b1-4)[Fuc(a1-6)]GlcNAc
# Outline: as §1
# [16] = target: Neu5Ac(a2-6)Gal(b1-4)GlcNAc(b1-2)Man(a1-6)Man(b1-4)GlcNAc(b1-4)GlcNAc
# Outline: as §1
# [17] = target: Neu5Ac(a2-6)Gal(b1-4)GlcNAc(b1-2)Man(a1-6)[Gal(b1-4)GlcNAc(b1-2)Man(a1-3)]Man(b1-4)GlcNAc(b1-4)GlcNAc
# Outline: as §1
# [18] = target: Neu5Ac(a2-6)Gal(b1-4)GlcNAc(b1-2)Man(a1-6)[GlcNAc(b1-2)Man(a1-3)]Man(b1-4)GlcNAc(b1-4)GlcNAc
# Outline: as §1
# [19] = target: Neu5Ac(a2-6)Gal(b1-4)GlcNAc(b1-2)Man(a1-6)[Man(a1-3)]Man(b1-4)GlcNAc(b1-4)GlcNAc
# Outline: as §1
# [20] = target: Neu5Ac(a2-6)Gal(b1-4)GlcNAc(b1-2)[Neu5Ac(a2-6)Gal(b1-4)GlcNAc(b1-4)]Man(a1-3)[GlcNAc(b1-4)][Neu5Ac(a2-6)Gal(b1-4)GlcNAc(b1-2)[Neu5Ac(a2-6)Gal(b1-4)GlcNAc(b1-6)]Man(a1-6)]Man(b1-4)GlcNAc(b1-4)GlcNAc
# Outline: as §1
# [21] = target: Neu5Ac(a2-6)Gal(b1-4)GlcNAc(b1-2)[Neu5Ac(a2-6)Gal(b1-4)GlcNAc(b1-4)]Man(a1-3)[GlcNAc(b1-4)][Neu5Ac(a2-6)Gal(b1-4)GlcNAc(b1-4)Man(a1-6)]Man(b1-4)GlcNAc(b1-4)GlcNAc
# Outline: as §1
# [22] = target: Neu5Ac(a2-6)Gal(b1-4)GlcNAc(b1-2)[Neu5Ac(a2-6)Gal(b1-4)GlcNAc(b1-6)]Man(a1-6)[Neu5Ac(a2-6)Gal(b1-4)GlcNAc(b1-2)Man(a1-3)][GlcNAc(b1-4)]Man(b1-4)GlcNAc(b1-4)GlcNAc
# Outline: as §1
# [23] = target: Neu5Ac(a2-6)Gal(b1-4)GlcNAc(b1-3)Gal(b1-3)GlcNAc
# Outline: as §1
# [24] = target: Neu5Ac(a2-6)Gal(b1-4)GlcNAc(b1-3)Gal(b1-4)GlcNAc
# Outline: as §1
# [25] = target: Neu5Ac(a2-6)Gal(b1-4)GlcNAc(b1-3)Gal(b1-4)GlcNAc(b1-2)Man(a1-3)[Neu5Ac(a2-6)Gal(b1-4)GlcNAc(b1-3)Gal(b1-4)GlcNAc(b1-2)Man(a1-6)]GalNAc
# Outline: as §1
# [26] = target: Neu5Ac(a2-6)Gal(b1-4)GlcNAc(b1-3)Gal(b1-4)GlcNAc(b1-3)Gal(b1-4)GlcNAc
# Outline: as §1
# [27] = target: Neu5Ac(a2-6)Gal(b1-4)GlcNAc(b1-3)Gal(b1-4)GlcNAc(b1-3)Gal(b1-4)GlcNAc(b1-2)Man(a1-3)[Neu5Ac(a2-6)Gal(b1-4)GlcNAc(b1-3)Gal(b1-4)GlcNAc(b1-3)Gal(b1-4)GlcNAc(b1-2)Man(a1-6)]GalNAc
# Outline: as §1
# [28] = target: Neu5Ac(a2-6)Gal(b1-4)GlcNAc(b1-3)Gal(b1-4)GlcNAc(b1-3)GalNAc
# Outline: as §1
# [29] = target: Neu5Ac(a2-6)Gal(b1-4)GlcNAc(b1-3)Gal(b1-4)GlcNAc(b1-3)[Neu5Ac(a2-6)Gal(b1-4)GlcNAc(b1-3)Gal(b1-4)GlcNAc(b1-6)]GalNAc
# Outline: as §1
# [30] = target: Neu5Ac(a2-6)Gal(b1-4)GlcNAc(b1-3)Gal(b1-4)GlcNAc(b1-6)[Gal(b1-3)]GalNAc
# Outline: as §1
# [31] = target: Neu5Ac(a2-6)Gal(b1-4)GlcNAc(b1-3)Gal(b1-4)[Fuc(a1-3)]GlcNAc(b1-3)Gal(b1-4)[Fuc(a1-3)]GlcNAc
# Outline: as §1
# [32] = target: Neu5Ac(a2-6)Gal(b1-4)GlcNAc(b1-3)GalNAc
# Outline: as §1
# [33] = target: Neu5Ac(a2-6)Gal(b1-4)GlcNAc(b1-3)[Neu5Ac(a2-6)Gal(b1-4)GlcNAc(b1-6)]GalNAc
# Outline: as §1
# [34] = target: Neu5Ac(a2-6)Gal(b1-4)GlcNAc(b1-6)GalNAc
# Outline: as §1
# [35] = target: Neu5Ac(a2-6)Gal(b1-4)GlcNAc(b1-6)[Gal(b1-3)GlcNAc(b1-3)]Gal(b1-4)Glc
# Outline: as §1
# [36] = target: Neu5Ac(a2-6)Gal(b1-4)GlcNAc(b1-6)[Gal(b1-3)]GalNAc
# Outline: as §1
# [37] = target: Neu5Ac(a2-6)Gal(b1-4)GlcNAc6S
# Outline: as §1
# [38] = target: Neu5Ac(a2-6)GalNAc
# Outline: as §1
# [39] = target: Neu5Ac(a2-6)GalNAc(b1-4)GlcNAc
# Outline: as §1
# [40] = target: Neu5Ac(a2-6)GalNAc(b1-4)GlcNAc6S
# Outline: as §1
# [41] = target: Neu5Ac(a2-6)GlcNAc(b1-4)GlcNAc
# Outline: as §1
# [42] = target: Neu5Ac(a2-6)GlcNAc(b1-4)GlcNAc(b1-4)GlcNAc
# Outline: as §1
# [43] = target: Neu5Ac(a2-8)Neu5Ac
# Outline: as §1
# [44] = target: Neu5Ac(a2-8)Neu5Ac(a2-3)Gal(b1-3)GalNAc(b1-4)[Neu5Ac(a2-3)]Gal(b1-4)Glc
# Outline: as §1
# [45] = target: Neu5Ac(a2-8)Neu5Ac(a2-3)Gal(b1-3)GalNAc(b1-4)[Neu5Ac(a2-8)Neu5Ac(a2-3)]Gal(b1-4)Glc
# Outline: as §1
binder,measurement,setting,value
B1,glycan array binding signal (z-score),[1],-0.623
same,glycan array binding signal (z-score),[2],-0.241
same,glycan array binding signal (z-score),[3],-0.488
same,glycan array binding signal (z-score),[4],-0.263
same,glycan array binding signal (z-score),[5],-0.297
same,glycan array binding signal (z-score),[6],-0.291
same,glycan array binding signal (z-score),[7],0.056
same,glycan array binding signal (z-score),[8],0.937
same,glycan array binding signal (z-score),[9],-0.069
same,glycan array binding signal (z-score),[10],-0.09
same,glycan array binding signal (z-score),[11],-0.278
same,glycan array binding signal (z-score),[12],0.288
same,glycan array binding signal (z-score),[13],-0.415
same,glycan array binding signal (z-score),[14],-0.174
same,glycan array binding signal (z-score),[15],-0.244
same,glycan array binding signal (z-score),[16],-0.073
same,glycan array binding signal (z-score),[17],-0.283
same,glycan array binding signal (z-score),[18],-0.269
same,glycan array binding signal (z-score),[19],-0.082
same,glycan array binding signal (z-score),[20],-0.294
same,glycan array binding signal (z-score),[21],0.042
same,glycan array binding signal (z-score),[22],-0.109
same,glycan array binding signal (z-score),[23],-0.335
same,glycan array binding signal (z-score),[24],-0.399
same,glycan array binding signal (z-score),[25],-0.461
same,glycan array binding signal (z-score),[26],-0.192
same,glycan array binding signal (z-score),[27],-0.169
same,glycan array binding signal (z-score),[28],-0.222
same,glycan array binding signal (z-score),[29],-0.09
same,glycan array binding signal (z-score),[30],1.19
same,glycan array binding signal (z-score),[31],0.104
same,glycan array binding signal (z-score),[32],0.718
same,glycan array binding signal (z-score),[33],1.19
same,glycan array binding signal (z-score),[34],0.75
same,glycan array binding signal (z-score),[35],-0.147
same,glycan array binding signal (z-score),[36],-0.394
same,glycan array binding signal (z-score),[37],-0.035
same,glycan array binding signal (z-score),[38],-0.302
same,glycan array binding signal (z-score),[39],-0.336
same,glycan array binding signal (z-score),[40],-0.379
same,glycan array binding signal (z-score),[41],-0.465
same,glycan array binding signal (z-score),[42],1.94
same,glycan array binding signal (z-score),[43],-0.152
same,glycan array binding signal (z-score),[44],1.1
same,glycan array binding signal (z-score),[45],0.064

# A stretch from the list above, for reference:
binder,measurement,setting,value
B1,glycan array binding signal (z-score),[19],-0.082
same,glycan array binding signal (z-score),[20],-0.294
